{
  "source": "PubChem BioAssay AID493014",
  "about": "(National Center for Advancing Translational Sciences (NCATS), 2011)",
  "test": "qHTS Assay to Find Inhibitors of Chronic Active B-Cell Receptor Signaling",
  "conditions": "ABC-DLBCL IkBa-CBG/CBR reporter, luminescence ratio (green luciferase fused to IkBa over red control in TMD8 lymphoma cells), 4 h",
  "in_short": "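Cell line TMD8 (human ABC DLBCL), stably expressing tet-inducible CBG68-IkBa fusion and CBR; IMDM/0.5% FBS; cpd up to 46 uM; dox induction, 4 h, 37C/5% CO2; dual luminescence; green/red ratio; MG132 control.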",
  "key": {"[1]": {"conditions": "measured here: CBR red luminescence, cell number"}, "[2]": {"conditions": "measured here: IkBa-CBG green luminescence"}},
  "note": "The other results are listed elsewhere or left out. Further columns of the screen follow, without active or inactive calls. The list favours compounds with an active or inconclusive main result. Potencies come from curve fits of mixed quality, noted in brackets.",
  "data": [
    {"smiles": "CCC(=O)NNc1ncnc2c1cnn2-c1ccccc1", "values": [
      {"measurement": "AC50", "setting": "[1]", "result": "3.16 µM [falling, partial curve, poor fit]"}
    ]},
    {"smiles": "COc1ccc(-c2nnc(SCC(=O)Nc3ncc(C)s3)n2-c2ccccc2)cc1OC", "values": [
      {"measurement": "AC50", "setting": "[1]", "result": "0.708 µM [falling, full curve, poor fit]"}
    ]},
    {"smiles": "CC1Cc2ccccc2N1CC(=O)NC(=O)NCc1ccco1", "note": "(configuration not stated)", "values": [
      {"measurement": "AC50", "setting": "[1]", "result": "3.66 µM [falling, single point]"},
      {"measurement": "AC50", "setting": "[2]", "result": "5.8 µM [rising, partial curve, poor fit]"}
    ]},
    {"smiles": "COc1ccccc1N(CC(=O)NC1CCCCC1)C(=O)c1csnn1", "values": [
      {"measurement": "AC50", "setting": "[1]", "result": "16.4 µM [falling, partial curve]"}
    ]},
    {"smiles": "COC(=O)C1=C(C)N(Cc2ccccc2)C(=NCCc2ccccn2)N[C@H]1c1cccc(F)c1", "values": [
      {"measurement": "AC50", "setting": "[1]", "result": "35.5 µM [falling, single point]"}
    ]},
    {"smiles": "COc1ccccc1C(=O)NCC(c1cccnc1)N(C)C", "note": "(configuration not stated)", "values": [
      {"measurement": "AC50", "setting": "[1]", "result": "12.6 µM [falling, single point]"}
    ]},
    {"smiles": "O=c1oc2c3c4c(cc2s1)CCCN4CCC3", "values": [
      {"measurement": "AC50", "setting": "[1]", "result": "0.82 µM [rising, full curve, poor fit]"}
    ]},
    {"smiles": "COc1ccc(N2CC(C(=O)Nc3nc4ccc(F)cc4s3)CC2=O)c(OC)c1", "note": "(configuration not stated)", "values": [
      {"measurement": "AC50", "setting": "[1]", "result": "11.2 µM [falling, single point]"}
    ]},
    {"smiles": "Cc1cccc2cc(CN(Cc3ccco3)C(=O)c3cccs3)c(=O)[nH]c12", "values": [
      {"measurement": "AC50", "setting": "[1]", "result": "3.66 µM [rising, single point]"}
    ]},
    {"smiles": "CCC(C)[C@@H](C(=O)Nc1ccc(OC)c(OC)c1)N1Cc2ccccc2C1=O", "note": "(some centres not stated)", "values": [
      {"measurement": "AC50", "setting": "[1]", "result": "23.1 µM [falling, partial curve, poor fit]"}
    ]},
    {"smiles": "Fc1cccc(Cl)c1CN1CCN(c2nc3ccccc3s2)CC1", "values": [
      {"measurement": "AC50", "setting": "[1]", "result": "0.631 µM [rising, full curve]"}
    ]},
    {"smiles": "CCOC(=O)CSc1nc2sc3c(c2c(=O)n1-c1ccccc1)CCN(C)C3", "values": [
      {"measurement": "AC50", "setting": "[1]", "result": "17.8 µM [rising, partial curve, poor fit]"}
    ]},
    {"smiles": "C=CCSc1nc2c(c(=O)[nH]c(=O)n2C)n1C(C)C", "values": [
      {"measurement": "AC50", "setting": "[1]", "result": "32.6 µM [rising, single point]"},
      {"measurement": "AC50", "setting": "[2]", "result": "20.6 µM [falling, partial curve, poor fit]"}
    ]},
    {"smiles": "COc1ccc(C(=O)c2cc([N+](=O)[O-])ccc2N2CCN(C)CC2)cc1", "values": [
      {"measurement": "AC50", "setting": "[2]", "result": "12.6 µM [falling, single point]"}
    ]},
    {"smiles": "O=C(N/N=C/C(Cl)=C/c1ccccc1)c1ccccc1F", "values": [
      {"measurement": "AC50", "setting": "[1]", "result": "3.98 µM [falling, partial curve]"}
    ]},
    {"smiles": "O=C1CC(c2ccccc2)CC(O)=C1C=Nc1ccccc1Cl", "note": "(configuration not stated)", "values": [
      {"measurement": "AC50", "setting": "[1]", "result": "9.2 µM [falling, partial curve]"}
    ]},
    {"smiles": "O=C(Nc1nc(-c2ccccc2)cs1)C1CCCN(S(=O)(=O)c2ccccc2)C1", "note": "(configuration not stated)", "values": [
      {"measurement": "AC50", "setting": "[1]", "result": "1.26 µM [falling, full curve]"}
    ]},
    {"smiles": "Cc1cc(N2CCN(c3cccc(C(F)(F)F)c3)CC2)n2nc(C)nc2n1", "values": [
      {"measurement": "AC50", "setting": "[1]", "result": "0.0517 µM [rising, full curve, poor fit]"}
    ]},
    {"smiles": "COc1cc2c(cc1OC)[C@@H]1O[C@](CCCCN3C(=O)c4ccccc4C3=O)(C2)Oc2cc(C)n(-c3ccccc3)c(=O)c21", "values": [
      {"measurement": "AC50", "setting": "[2]", "result": "3.98 µM [rising, partial curve, poor fit]"}
    ]},
    {"smiles": "C/C(Cn1nnc([N+](=O)[O-])n1)=N\\NC(=O)c1ccccc1", "values": [
      {"measurement": "AC50", "setting": "[1]", "result": "7.08 µM [falling, full curve]"}
    ]},
    {"smiles": "O=C(N/N=C/C(Br)=C\\c1ccccc1)c1cccs1", "values": [
      {"measurement": "AC50", "setting": "[1]", "result": "12.6 µM [falling, partial curve]"}
    ]},
    {"smiles": "COc1cc2c(cc1OC)C1O[C@](CCCCN3C(=O)c4ccccc4C3=O)(C2)Oc2cc(C)n(Cc3ccccc3)c(=O)c21", "values": [
      {"measurement": "AC50", "setting": "[1]", "result": "1.41 µM [rising, partial curve]"}
    ]},
    {"smiles": "Cc1ccc(CSC(Nc2ccc(F)cc2)=C(C#N)C#N)cc1", "values": [
      {"measurement": "AC50", "setting": "[1]", "result": "7.31 µM [falling, partial curve]"}
    ]},
    {"smiles": "Cn1c(NN)nc2c1c(=O)n(Cc1ccccc1)c(=O)n2C", "values": [
      {"measurement": "AC50", "setting": "[1]", "result": "10 µM [falling, partial curve, poor fit]"}
    ]},
    {"smiles": "O=C(CCS(=O)(=O)Cc1ccc(Cl)cc1)NCCCN1CCN(c2ccccc2F)CC1", "values": [
      {"measurement": "AC50", "setting": "[1]", "result": "20.6 µM [falling, single point]"}
    ]},
    {"smiles": "Cc1ccc2sc(N(CCCN(C)C)C(=O)c3ccc(S(=O)(=O)N(C)C)cc3)nc2c1C", "values": [
      {"measurement": "AC50", "setting": "[1]", "result": "12.6 µM [falling, partial curve]"}
    ]},
    {"smiles": "COc1cccc(Nc2nc3ccc(OC)cc3s2)c1", "values": [
      {"measurement": "AC50", "setting": "[1]", "result": "25.1 µM [falling, single point]"}
    ]},
    {"smiles": "O=C(O)c1ccccc1NC(=S)NC(=O)c1cccc2ccccc12", "values": [
      {"measurement": "AC50", "setting": "[1]", "result": "10 µM [falling, partial curve]"}
    ]},
    {"smiles": "O=C(NCc1ccccn1)c1cc(-c2ccccc2)on1", "values": [
      {"measurement": "AC50", "setting": "[1]", "result": "23.1 µM [falling, single point]"}
    ]},
    {"smiles": "O=C(Nc1ccccc1)Nc1ccccc1NS(=O)(=O)c1cccs1", "values": [
      {"measurement": "AC50", "setting": "[1]", "result": "0.0092 µM [rising, full curve, poor fit]"}
    ]},
    {"smiles": "O=C1CN(C(=O)c2c(F)cccc2F)C(c2ccccc2)c2cc(Br)ccc2N1", "note": "(configuration not stated)", "values": [
      {"measurement": "AC50", "setting": "[1]", "result": "35.5 µM [falling, single point]"}
    ]},
    {"smiles": "O=S(=O)(CCN1CCN(C(c2ccccc2)c2ccccc2)CC1)C(F)(F)F", "values": [
      {"measurement": "AC50", "setting": "[1]", "result": "22.4 µM [falling, single point]"}
    ]},
    {"smiles": "CCC(=O)N1CCN(c2ccc(NC(=O)COc3ccc(CC)cc3)cc2)CC1", "values": [
      {"measurement": "AC50", "setting": "[1]", "result": "0.631 µM [falling, partial curve, poor fit]"}
    ]},
    {"smiles": "COc1cc(NC(=O)Nc2cccc(Cl)c2)c(OC)cc1NC(=O)CN1CCCCC1", "values": [
      {"measurement": "AC50", "setting": "[1]", "result": "0.731 µM [falling, partial curve, poor fit]"}
    ]},
    {"smiles": "COc1ccc(/C=C/C(=O)N2CCCc3ccccc32)cc1", "values": [
      {"measurement": "AC50", "setting": "[1]", "result": "29.1 µM [falling, single point]"},
      {"measurement": "AC50", "setting": "[2]", "result": "6.51 µM [falling, partial curve, poor fit]"}
    ]},
    {"smiles": "Cc1nnc2ccc(-c3cccc(NS(=O)(=O)c4ccccc4[N+](=O)[O-])c3)nn12", "values": [
      {"measurement": "AC50", "setting": "[2]", "result": "3.66 µM [falling, partial curve, poor fit]"}
    ]},
    {"smiles": "O=C(Nc1ccccc1)c1cc2ccccc2c(=O)s1", "values": [
      {"measurement": "AC50", "setting": "[1]", "result": "29.1 µM [falling, single point]"}
    ]},
    {"smiles": "Cc1cc(NC(=O)NC(=O)c2ccc(F)cc2F)n[nH]1", "values": [
      {"measurement": "AC50", "setting": "[1]", "result": "4.47 µM [falling, partial curve]"}
    ]},
    {"smiles": "Cc1cc2c(cc1S(=O)(=O)CCC(=O)N(C)C1CCCCC1)OCC(=O)N2", "values": [
      {"measurement": "AC50", "setting": "[1]", "result": "22.4 µM [rising, single point]"}
    ]}
  ]
}
